Values from PubChem BioAssay AID743454 (Peter MacCallum Cancer Centre, 2014)
This is a random part of about 18,000 deposited reagents. 450 of them (2.5%) count as active. 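Single biological run; no consistent viability z cut-off exists, so the class columns, not z-scores, define the calls.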 A number with no mark means an inactive call. Reagent sequences are not shown.

Aim: 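Knock-downs lowering viability or raising caspase 3/7 activity in vorinostat-treated resistant cells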 (primary screen)
Cells: human HCT116-VR colon cancer cells, selected for vorinostat resistance
Reagent: siRNA pool against human genes, 40 nM siRNA pool
Timing: vorinostat for 24 h, read-out about 72 h after transfection
Conditions: vorinostat at 2.5 µM final
Detection: 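Cell viability by CellTiter-Fluor and caspase 3/7 activity by luminescence, each scaled to mock wells per plate, duplicates averaged, then robust z-scored over all plates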
Reading the numbers: viability robust z-score: higher = more viable cells than screen typical; caspase robust z-score: higher = more caspase 3/7 activity than screen typical
Rule for the call: 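Hits are knock-downs in viability class RV1/RV2 or caspase class CA1/CA2, excluding ones that killed cells in the no-drug cell-count arm; hits then retested with single siRNAs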

PHLDA3 gave viability hit class no change; caspase hit class no change; viability robust z-score 0.47; caspase robust z-score 1.1.
Depletion of TMEM232 resulted in: viability hit class no change; caspase hit class no change; viability robust z-score 0.67; caspase robust z-score -0.48.
Against UBXN11, the entry reads viability hit class no change; caspase hit class no change; viability robust z-score -1.27; caspase robust z-score 3.15.
RBM45 showed viability hit class no change; caspase hit class no change; viability robust z-score 0.31; caspase robust z-score -0.72.
After knock-down of PLB1 the results were viability hit class no change; caspase hit class no change; viability robust z-score -0.94; caspase robust z-score -1.02.
After knock-down of MSTN the results were viability hit class no change; caspase hit class no change; viability robust z-score 1.47; caspase robust z-score 1.21.
Depletion of ZSCAN9 came out at: viability hit class no change; caspase hit class no change; viability robust z-score 0.06; caspase robust z-score -0.42.
Depletion of ZNF266 gave: viability hit class no change; caspase hit class no change; viability robust z-score 1.13; caspase robust z-score 1.27.
After knock-down of ELAPOR2, the screen gave viability hit class no change; caspase hit class no change; viability robust z-score -0.32; caspase robust z-score -0.63.
With knock-down of IMP4, the screen gave viability hit class no change; caspase hit class no change; viability robust z-score -1.68; caspase robust z-score -1.06.
BRK1 scored viability hit class no change; caspase hit class no change; viability robust z-score -0.24; caspase robust z-score -0.92.
B3GNT2 scored viability hit class no change; caspase hit class no change; viability robust z-score 1.68; caspase robust z-score -0.52.
Depletion of CAMK2D came out at: viability hit class no change; caspase hit class no change; viability robust z-score 1.6; caspase robust z-score -0.41.
NEU2 scored viability hit class no change; caspase hit class no change; viability robust z-score 0.76; caspase robust z-score -0.38.
NXPE3 scored viability hit class no change; caspase hit class no change; viability robust z-score -0.47; caspase robust z-score -0.33.
EGFLAM scored viability hit class no change; caspase hit class no change; viability robust z-score 0.4; caspase robust z-score -0.08.
After knock-down of PPP2R5A, the record shows viability hit class no change; caspase hit class no change; viability robust z-score 0.66; caspase robust z-score -0.82.
CDC20B gave viability hit class no change; caspase hit class no change; viability robust z-score 0.81; caspase robust z-score 0.26.
Depletion of PGAP1 resulted in: viability hit class no change; caspase hit class no change; viability robust z-score -0.97; caspase robust z-score 4.6.
ZNF214 gave viability hit class no change; caspase hit class no change; viability robust z-score 1.52; caspase robust z-score -0.82.
After knock-down of FUT2 the results were viability hit class no change; caspase hit class no change; viability robust z-score 0.71; caspase robust z-score -0.64.
